The other results are listed elsewhere or left out.
The targets below were run with CNc1nc(-c2ccc3c(N)n[nH]c3c2)cc(N2C[C@@H](C(=O)NC3CCCCC3)CC[C@H]2C)n1 (assay: log2 fold change, soluble protein after heating vs DMSO (PISA); higher = thermal stabilisation; K562 cells, 10 uM, 30 min; active = over 0.2 and 3.5 SD of the protein, either way, in both replicates (recomputed)).
Method in brief: (§1)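 K562 cells at 2×10^6 cells/mL were treated with 10 μM compound for 30 min. Aliquots were heated for 3 min across 48°C-58°C, pooled, and extracted in PBS with 0.5% NP-40 at 4°C; soluble protein was the supernatant after 21,000xg for 90 min. Soluble protein was quantified by TMTpro 16plex LC-MS/MS with channel sums equalised, and reported as log2 fold change in thermal stability against DMSO controls, with values from duplicates.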

The chains behind the UniProt entries cited, without tags or fusion partners. Where a name states a change or a piece, a line headed by the entry shows the natural chain unless it says otherwise.
UniProt P18669: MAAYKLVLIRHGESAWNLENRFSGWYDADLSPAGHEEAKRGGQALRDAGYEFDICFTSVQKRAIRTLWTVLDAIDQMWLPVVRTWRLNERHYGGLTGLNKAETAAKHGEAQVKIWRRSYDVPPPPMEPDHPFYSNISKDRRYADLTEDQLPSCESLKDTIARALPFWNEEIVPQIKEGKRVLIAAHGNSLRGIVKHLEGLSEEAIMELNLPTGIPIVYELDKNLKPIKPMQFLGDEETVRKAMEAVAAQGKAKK
UniProt Q9NRX4: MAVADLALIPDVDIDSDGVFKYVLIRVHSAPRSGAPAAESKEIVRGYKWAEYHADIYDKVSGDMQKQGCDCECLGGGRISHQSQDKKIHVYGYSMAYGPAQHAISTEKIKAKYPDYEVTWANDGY
UniProt Q92576, whole entry, looked up: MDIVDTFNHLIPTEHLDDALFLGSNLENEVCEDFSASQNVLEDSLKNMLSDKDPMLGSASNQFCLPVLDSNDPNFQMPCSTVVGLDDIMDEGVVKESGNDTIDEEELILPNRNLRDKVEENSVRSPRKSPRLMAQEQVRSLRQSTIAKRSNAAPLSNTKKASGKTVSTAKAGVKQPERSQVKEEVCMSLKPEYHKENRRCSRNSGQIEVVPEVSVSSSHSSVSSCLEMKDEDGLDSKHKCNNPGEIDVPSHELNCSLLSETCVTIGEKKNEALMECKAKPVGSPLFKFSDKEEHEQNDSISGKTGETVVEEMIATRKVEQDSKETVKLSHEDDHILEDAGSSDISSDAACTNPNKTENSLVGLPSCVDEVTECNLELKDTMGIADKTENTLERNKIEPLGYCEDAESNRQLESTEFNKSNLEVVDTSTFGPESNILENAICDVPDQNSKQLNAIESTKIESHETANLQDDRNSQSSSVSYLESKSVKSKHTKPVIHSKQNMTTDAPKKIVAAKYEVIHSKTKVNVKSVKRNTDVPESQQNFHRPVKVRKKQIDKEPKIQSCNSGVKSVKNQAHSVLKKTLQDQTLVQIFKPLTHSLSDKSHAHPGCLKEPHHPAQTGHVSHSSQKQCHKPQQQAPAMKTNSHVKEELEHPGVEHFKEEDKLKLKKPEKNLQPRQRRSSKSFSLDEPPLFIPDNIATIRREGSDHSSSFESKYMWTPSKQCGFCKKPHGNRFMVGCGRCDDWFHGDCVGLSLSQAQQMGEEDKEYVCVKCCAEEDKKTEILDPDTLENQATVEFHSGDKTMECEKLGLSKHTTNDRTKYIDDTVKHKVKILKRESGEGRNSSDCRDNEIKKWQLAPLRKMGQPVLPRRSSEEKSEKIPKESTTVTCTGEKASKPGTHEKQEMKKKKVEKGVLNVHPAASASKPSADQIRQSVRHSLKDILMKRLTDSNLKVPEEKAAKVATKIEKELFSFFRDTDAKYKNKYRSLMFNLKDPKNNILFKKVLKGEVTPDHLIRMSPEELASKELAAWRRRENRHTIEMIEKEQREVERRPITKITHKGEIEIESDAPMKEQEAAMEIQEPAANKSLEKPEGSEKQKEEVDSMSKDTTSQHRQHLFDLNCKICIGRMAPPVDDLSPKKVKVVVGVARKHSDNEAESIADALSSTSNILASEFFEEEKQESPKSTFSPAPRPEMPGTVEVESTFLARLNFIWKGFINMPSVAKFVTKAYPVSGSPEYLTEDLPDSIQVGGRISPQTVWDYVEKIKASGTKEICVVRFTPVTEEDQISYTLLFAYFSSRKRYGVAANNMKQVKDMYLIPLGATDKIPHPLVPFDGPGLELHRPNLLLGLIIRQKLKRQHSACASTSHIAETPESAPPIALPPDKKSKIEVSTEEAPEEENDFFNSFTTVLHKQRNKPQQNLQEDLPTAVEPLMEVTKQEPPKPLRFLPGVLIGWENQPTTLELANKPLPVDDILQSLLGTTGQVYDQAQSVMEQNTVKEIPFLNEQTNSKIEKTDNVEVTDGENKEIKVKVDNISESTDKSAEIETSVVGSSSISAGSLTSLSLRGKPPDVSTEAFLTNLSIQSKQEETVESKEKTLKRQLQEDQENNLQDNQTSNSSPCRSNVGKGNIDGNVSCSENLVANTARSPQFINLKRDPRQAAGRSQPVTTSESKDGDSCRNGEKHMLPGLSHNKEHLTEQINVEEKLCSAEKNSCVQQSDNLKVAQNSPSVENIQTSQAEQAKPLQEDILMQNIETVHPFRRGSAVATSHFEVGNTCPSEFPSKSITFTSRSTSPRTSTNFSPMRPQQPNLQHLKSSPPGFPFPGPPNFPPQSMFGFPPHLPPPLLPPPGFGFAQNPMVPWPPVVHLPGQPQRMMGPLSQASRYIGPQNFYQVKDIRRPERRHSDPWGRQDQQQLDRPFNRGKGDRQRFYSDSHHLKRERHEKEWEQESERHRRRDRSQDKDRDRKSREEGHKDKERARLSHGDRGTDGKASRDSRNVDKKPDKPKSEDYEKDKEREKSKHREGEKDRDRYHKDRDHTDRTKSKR
UniProt Q32NB8: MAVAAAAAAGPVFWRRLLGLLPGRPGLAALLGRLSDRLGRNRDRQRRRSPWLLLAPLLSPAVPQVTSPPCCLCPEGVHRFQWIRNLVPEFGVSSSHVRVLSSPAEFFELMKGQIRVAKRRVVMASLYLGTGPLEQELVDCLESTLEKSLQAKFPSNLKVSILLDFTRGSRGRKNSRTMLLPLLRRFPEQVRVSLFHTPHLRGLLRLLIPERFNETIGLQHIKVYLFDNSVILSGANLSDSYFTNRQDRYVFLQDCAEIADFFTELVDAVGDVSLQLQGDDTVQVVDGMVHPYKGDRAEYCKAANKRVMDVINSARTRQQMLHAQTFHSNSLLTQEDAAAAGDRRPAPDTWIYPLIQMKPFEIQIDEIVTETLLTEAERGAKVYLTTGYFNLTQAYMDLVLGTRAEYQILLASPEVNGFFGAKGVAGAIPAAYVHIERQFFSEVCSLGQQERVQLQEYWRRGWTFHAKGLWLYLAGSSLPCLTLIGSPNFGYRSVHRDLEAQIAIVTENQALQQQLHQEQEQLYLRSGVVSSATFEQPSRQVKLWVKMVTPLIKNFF
UniProt P42356, whole entry, looked up: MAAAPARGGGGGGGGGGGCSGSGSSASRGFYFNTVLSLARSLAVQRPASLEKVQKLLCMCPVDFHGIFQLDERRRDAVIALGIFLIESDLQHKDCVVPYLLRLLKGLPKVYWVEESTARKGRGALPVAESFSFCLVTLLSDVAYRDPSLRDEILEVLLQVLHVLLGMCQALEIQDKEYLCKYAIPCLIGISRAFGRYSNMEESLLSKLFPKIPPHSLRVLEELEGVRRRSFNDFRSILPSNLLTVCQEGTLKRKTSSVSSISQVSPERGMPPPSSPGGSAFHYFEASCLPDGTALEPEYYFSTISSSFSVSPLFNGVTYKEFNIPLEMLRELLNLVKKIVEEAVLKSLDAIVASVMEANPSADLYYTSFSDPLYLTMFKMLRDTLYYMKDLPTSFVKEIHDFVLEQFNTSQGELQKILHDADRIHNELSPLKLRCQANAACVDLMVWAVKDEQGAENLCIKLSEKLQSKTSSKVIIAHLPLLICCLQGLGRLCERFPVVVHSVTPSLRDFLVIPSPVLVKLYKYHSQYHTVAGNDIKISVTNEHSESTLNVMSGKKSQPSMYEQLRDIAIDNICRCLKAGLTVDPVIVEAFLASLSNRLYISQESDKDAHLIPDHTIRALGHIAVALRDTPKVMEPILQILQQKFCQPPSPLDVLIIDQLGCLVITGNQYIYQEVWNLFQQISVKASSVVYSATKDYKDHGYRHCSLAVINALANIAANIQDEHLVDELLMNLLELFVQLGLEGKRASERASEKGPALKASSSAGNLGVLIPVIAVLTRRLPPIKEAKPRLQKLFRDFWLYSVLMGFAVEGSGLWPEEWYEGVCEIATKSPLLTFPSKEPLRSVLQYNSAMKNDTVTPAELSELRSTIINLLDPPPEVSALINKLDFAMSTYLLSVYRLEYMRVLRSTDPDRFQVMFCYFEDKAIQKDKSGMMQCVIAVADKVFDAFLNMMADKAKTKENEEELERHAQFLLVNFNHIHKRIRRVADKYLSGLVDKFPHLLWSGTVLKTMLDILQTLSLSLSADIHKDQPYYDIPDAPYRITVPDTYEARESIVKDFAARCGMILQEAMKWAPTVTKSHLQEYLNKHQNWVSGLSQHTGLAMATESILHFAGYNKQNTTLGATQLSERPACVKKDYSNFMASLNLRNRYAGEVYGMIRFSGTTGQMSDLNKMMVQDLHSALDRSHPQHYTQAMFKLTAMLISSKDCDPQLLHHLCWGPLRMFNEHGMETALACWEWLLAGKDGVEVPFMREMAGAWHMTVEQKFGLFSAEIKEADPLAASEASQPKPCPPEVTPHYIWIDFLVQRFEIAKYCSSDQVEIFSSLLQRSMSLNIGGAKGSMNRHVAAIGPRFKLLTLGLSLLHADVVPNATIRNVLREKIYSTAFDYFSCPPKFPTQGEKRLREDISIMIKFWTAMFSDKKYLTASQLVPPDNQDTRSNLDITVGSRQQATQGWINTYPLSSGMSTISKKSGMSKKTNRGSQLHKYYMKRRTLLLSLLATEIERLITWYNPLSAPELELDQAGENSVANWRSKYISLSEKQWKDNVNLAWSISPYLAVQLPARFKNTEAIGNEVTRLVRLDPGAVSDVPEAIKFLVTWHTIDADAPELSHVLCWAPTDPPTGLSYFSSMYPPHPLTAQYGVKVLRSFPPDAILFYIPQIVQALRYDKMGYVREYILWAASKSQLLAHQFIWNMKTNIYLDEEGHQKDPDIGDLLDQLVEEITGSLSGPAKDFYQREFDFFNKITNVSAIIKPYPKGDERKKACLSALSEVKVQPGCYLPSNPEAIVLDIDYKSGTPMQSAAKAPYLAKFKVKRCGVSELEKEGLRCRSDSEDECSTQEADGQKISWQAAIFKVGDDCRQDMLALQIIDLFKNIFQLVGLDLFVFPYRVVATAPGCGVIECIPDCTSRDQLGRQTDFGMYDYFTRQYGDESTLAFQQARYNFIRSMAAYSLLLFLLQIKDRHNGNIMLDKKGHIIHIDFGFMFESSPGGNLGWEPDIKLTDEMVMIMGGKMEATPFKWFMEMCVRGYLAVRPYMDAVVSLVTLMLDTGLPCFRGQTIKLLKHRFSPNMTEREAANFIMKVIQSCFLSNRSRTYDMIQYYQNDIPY
UniProt A6NDG6: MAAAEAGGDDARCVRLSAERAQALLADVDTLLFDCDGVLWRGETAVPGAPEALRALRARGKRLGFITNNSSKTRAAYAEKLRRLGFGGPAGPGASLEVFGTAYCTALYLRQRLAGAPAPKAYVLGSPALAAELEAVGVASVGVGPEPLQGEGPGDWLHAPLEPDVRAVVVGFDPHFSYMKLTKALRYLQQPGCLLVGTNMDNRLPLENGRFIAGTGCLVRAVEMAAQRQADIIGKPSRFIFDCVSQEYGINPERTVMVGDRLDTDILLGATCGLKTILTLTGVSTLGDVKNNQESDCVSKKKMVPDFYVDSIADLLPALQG
UniProt Q9BZM1: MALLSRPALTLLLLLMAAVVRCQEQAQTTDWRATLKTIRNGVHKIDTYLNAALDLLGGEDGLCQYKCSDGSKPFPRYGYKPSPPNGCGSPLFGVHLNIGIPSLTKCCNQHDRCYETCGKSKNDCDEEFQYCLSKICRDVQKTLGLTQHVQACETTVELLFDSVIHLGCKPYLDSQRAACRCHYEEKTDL
UniProt Q16875: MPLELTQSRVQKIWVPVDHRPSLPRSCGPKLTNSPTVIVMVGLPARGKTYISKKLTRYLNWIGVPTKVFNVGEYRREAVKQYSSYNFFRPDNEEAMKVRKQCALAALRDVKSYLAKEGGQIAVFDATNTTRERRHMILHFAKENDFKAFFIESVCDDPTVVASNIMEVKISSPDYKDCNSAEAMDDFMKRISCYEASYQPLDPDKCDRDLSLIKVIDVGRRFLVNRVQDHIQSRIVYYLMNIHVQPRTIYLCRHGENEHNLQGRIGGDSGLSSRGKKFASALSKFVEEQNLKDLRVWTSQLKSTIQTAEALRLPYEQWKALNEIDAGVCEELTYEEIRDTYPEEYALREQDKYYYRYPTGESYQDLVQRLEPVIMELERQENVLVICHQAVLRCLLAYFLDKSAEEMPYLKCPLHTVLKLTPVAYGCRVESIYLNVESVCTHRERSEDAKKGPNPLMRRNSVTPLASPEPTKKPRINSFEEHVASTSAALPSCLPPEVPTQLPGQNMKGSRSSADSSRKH
UniProt Q99623, whole entry, looked up: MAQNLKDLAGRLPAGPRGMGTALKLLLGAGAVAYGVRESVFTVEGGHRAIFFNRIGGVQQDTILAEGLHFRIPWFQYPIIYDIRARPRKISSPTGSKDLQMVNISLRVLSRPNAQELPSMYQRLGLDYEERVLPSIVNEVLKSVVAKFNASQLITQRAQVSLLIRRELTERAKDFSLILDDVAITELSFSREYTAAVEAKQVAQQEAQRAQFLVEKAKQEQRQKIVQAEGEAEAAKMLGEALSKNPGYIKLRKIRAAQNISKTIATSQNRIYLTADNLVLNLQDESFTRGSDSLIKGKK
PIGBOS1, A0A0B4J2F0, UniProt A0A0B4J2F0, whole entry, looked up: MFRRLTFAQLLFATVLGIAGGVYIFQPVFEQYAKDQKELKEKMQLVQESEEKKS
UniProt Q9NQP4, whole entry, looked up: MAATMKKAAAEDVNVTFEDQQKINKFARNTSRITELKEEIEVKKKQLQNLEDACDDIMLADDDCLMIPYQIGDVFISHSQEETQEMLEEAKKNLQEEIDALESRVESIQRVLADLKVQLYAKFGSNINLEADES

log2 fold change, inactive:
PHF19 isoform 2 (UniProt Q5T6S3) 0.02
PGAM1 (UniProt P18669) 0.009
PLCH1 (UniProt Q4KWH8) 0.005
PFKP (UniProt Q01813) -0.003
PHPT1 (UniProt Q9NRX4) -0.035
PHB (UniProt P35232) -0.02
PFKFB4 (UniProt Q16877) -0.001
PIK3R2 (UniProt O00459) 0.015
PFKL isoform 2 (UniProt P17858) 0
PFDN2 (UniProt Q9UHV9) -0.041
PHF6 (UniProt Q8IWS0) 0.047
PHF3 (UniProt Q92576) 0.065
PHACTR4 isoform 2 (UniProt Q8IZ21) 0.003
PEX6 (UniProt Q13608) -0.054
PLAA (UniProt Q9Y263) 0.039
PGS1 (UniProt Q32NB8) 0.06
PI4KA (UniProt P42356) -0.006
PITHD1 (UniProt Q9GZP4) -0.036
PLEC (UniProt Q15149) 0.015

Each target was assayed with COC(=O)N[C@@H](C)CNc1nccc(-c2cn(C(C)C)nc2-c2cc(Cl)cc(NS(C)(=O)=O)c2F)n1 [encorafenib] in the same assay as above.
Method in brief: as §1

log2 fold change, inactive:
PIGW (UniProt Q7Z7B1) -0.075
PGP (UniProt A6NDG6) -0.005
PFKM isoform 3 (UniProt P08237) -0.022
PLA2G12A (UniProt Q9BZM1) 0.059
PFKFB3 isoform 4 (UniProt Q16875) 0.027
PHB2 (UniProt Q99623) -0.019
PGM2 (UniProt Q96G03) 0.005
PIGBOS1, A0A0B4J2F0 -0.125
PHACTR2 isoform 4 (UniProt O75167) 0.012
PKLR (UniProt P30613) -0.009
PHKB isoform 3 (UniProt Q93100) 0.034
PFDN4 (UniProt Q9NQP4) -0.027
PGM2L1 (UniProt Q6PCE3) -0.008
PHF19 isoform 2 (UniProt Q5T6S3) 0.168
PGAM1 (UniProt P18669) -0.027
PLCH1 (UniProt Q4KWH8) 0.035
PFKP (UniProt Q01813) -0.026
PHPT1 (UniProt Q9NRX4) -0.003
PHB (UniProt P35232) -0.009
PFKFB4 (UniProt Q16877) -0.017
PIK3R2 (UniProt O00459) 0.076
PFKL isoform 2 (UniProt P17858) 0.002
PFDN2 (UniProt Q9UHV9) -0.005
PHF6 (UniProt Q8IWS0) 0.145
PHF3 (UniProt Q92576) 0.053
PHACTR4 isoform 2 (UniProt Q8IZ21) -0.035
PEX6 (UniProt Q13608) 0.016
PLAA (UniProt Q9Y263) 0.038
PGS1 (UniProt Q32NB8) 0.072
PI4KA (UniProt P42356) 0.106
PITHD1 (UniProt Q9GZP4) -0.101
PLEC (UniProt Q15149) 0.007

Source: the supplement of paper PMC10849652
